Measured values from PMC11830769.

By UniProt entry, the sequences of proteins in these tests, tags left out. Where a name states a change or a piece, a line headed by the entry shows the natural chain unless it says otherwise.
UniProt Q93640: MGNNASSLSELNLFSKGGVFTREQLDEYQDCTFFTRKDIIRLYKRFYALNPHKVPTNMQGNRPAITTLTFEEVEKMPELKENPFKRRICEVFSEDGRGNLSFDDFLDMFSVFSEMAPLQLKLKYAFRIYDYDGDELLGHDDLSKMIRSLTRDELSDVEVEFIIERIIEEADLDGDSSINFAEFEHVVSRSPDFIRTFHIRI

Biological target: T1, nematode ANOH-1 (Anoctamin-1, C. elegans) with an HA-tag (C. elegans) (UniProt G5EBW3)
T1 sequence: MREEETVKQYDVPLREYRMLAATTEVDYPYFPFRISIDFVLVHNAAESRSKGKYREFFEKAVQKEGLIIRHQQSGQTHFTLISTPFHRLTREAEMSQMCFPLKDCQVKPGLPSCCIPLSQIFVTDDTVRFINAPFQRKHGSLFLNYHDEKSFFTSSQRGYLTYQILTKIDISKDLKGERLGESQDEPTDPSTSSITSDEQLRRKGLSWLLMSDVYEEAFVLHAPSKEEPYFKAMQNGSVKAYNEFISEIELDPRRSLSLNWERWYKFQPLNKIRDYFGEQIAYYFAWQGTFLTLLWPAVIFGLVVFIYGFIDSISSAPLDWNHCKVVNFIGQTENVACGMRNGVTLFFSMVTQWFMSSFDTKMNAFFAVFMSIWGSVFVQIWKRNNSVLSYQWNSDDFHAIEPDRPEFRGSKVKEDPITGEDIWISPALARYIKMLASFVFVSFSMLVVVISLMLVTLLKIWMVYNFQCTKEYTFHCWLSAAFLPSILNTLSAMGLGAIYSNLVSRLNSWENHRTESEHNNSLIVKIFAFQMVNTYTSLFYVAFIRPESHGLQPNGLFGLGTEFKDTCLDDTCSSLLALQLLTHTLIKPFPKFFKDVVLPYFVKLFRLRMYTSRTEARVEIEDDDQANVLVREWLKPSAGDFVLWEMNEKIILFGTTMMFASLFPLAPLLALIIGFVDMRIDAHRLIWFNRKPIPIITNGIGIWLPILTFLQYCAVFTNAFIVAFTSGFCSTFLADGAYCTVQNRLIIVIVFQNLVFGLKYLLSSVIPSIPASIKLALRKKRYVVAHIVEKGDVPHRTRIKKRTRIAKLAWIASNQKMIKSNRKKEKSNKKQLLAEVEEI
Experiment: co-IP; transfected HEK293T cells lysed in TAP buffer (20 mM Tris-HCl pH 7.5, 150 mM NaCl, 0.5% NP-40, 1 mM EDTA); supernatant incubated with anti-HA agarose affinity gel 4 h at 4 °C; beads washed 3 times with TAP buffer; SDS-PAGE and immunoblot

binding: binds
Substance: nematode CALM-1 (from UniProt Q93640)

No constants are given. Whether binding was seen depends on the method and setting. In cells and extracts the contact can be indirect. Binding can be weak; no strength is given. Sequences can lack the tags named with a protein.
